PubChem BioAssay AID1508587, Peter MacCallum Cancer Centre | 2020
The whole screen tested about 1,600 reagents; this is a part drawn at random. 623 of all reagents (39%) count as active. 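Calls are for each duplex; lactate ratios contain extreme outliers.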 Entries without a mark were called inactive. The numbers tell different reagents against one gene apart.

- Aim: 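Follow-up of vemurafenib sensitisers scored by lactate made per cell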 (follow-up of hits)
- Cells: human WM266.4 melanoma cells with a BRAF V600 mutation
- Reagent: single siRNA against human genes, 25 nM
- Duration: 96 h
- Treatment: vemurafenib 300 nM (about IC25), given 48 h after transfection for 48 h
- Measurement: 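Per-cell lactate from absorbance divided by DAPI nucleus counts, compared with and without vemurafenib, relative to non-targeting siRNA, mean of 2 replicates; nuclear counts also give cell number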
- Scale: lactate per cell, drug vs no drug: higher = less drug-induced drop in lactate per cell; lactate per cell with vemurafenib: higher = more lactate per cell under drug; lactate per cell without drug: higher = more lactate per cell without drug; cell growth with vemurafenib and cell growth without drug: higher = more cell growth over 48 h
- Call rule: 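a duplex is active when its lactate-per-cell ratio with versus without drug falls under 0.55, i.e. 2 SD below non-targeting; a gene is confirmed if 2 or more of 4 duplexes pass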

The opening 3 entries, ahead of the listing:
gene | reagent | lactate per cell, drug vs no drug | lactate per cell with vemurafenib | lactate per cell without drug | cell growth with vemurafenib | cell growth without drug
FSAF1 (GeneID 128061) | 1 | 0.65 | 3.53 | 3.42 | -0.07 | 0.05
FSAF1 (GeneID 128061) | 2 | 0.59 | 0.86 | 0.92 | 1.14 | 1.17
FSAF1 (GeneID 128061) | 3 | 0.58 | 1.73 | 1.87 | -0.06 | 0.02

Results, from the first entry:
gene | reagent | lactate per cell, drug vs no drug | lactate per cell with vemurafenib | lactate per cell without drug | cell growth with vemurafenib | cell growth without drug
FSAF1 (GeneID 128061) | 1 | 0.65 | 3.53 | 3.42 | -0.07 | 0.05
FSAF1 (GeneID 128061) | 2 | 0.59 | 0.86 | 0.92 | 1.14 | 1.17
FSAF1 (GeneID 128061) | 3 | 0.58 | 1.73 | 1.87 | -0.06 | 0.02
FSAF1 (GeneID 128061) | 4 | 0.6 | 0.95 | 0.99 | 0.88 | 0.99
CORT (GeneID 1325) | 1 | 0.45 (active) | 1.96 | 2.66 | 0.04 | 0.02
CORT (GeneID 1325) | 2 | 0.44 (active) | 0.54 | 0.77 | 0.47 | 0.72
CORT (GeneID 1325) | 3 | 0.91 | 0.86 | 0.59 | -0.14 | 0.06
CORT (GeneID 1325) | 4 | 0.86 | 1.57 | 1.14 | 0.25 | 0.49
SPDEF (GeneID 25803) | 1 | 1.02 | 3.08 | 1.94 | 0.26 | 0.31
SPDEF (GeneID 25803) | 2 | 0.69 | 1.3 | 1.24 | 0.63 | 0.59
SPDEF (GeneID 25803) | 3 | 0.5 (active) | 1 | 1.29 | 0.73 | 0.44
SPDEF (GeneID 25803) | 4 | 0.56 | 2.08 | 2.41 | 0.21 | 0.09
MAP3K7 (GeneID 6885) | 1 | 0.69 | 1.94 | 1.78 | 0.41 | 0.47
MAP3K7 (GeneID 6885) | 2 | 0.48 (active) | 0.86 | 1.12 | 0.85 | 0.7
MAP3K7 (GeneID 6885) | 3 | 0.99 | 2.69 | 1.73 | 0.04 | 0.15
MAP3K7 (GeneID 6885) | 4 | 0.61 | 0.77 | 0.79 | 0.98 | 1.2
CANX (GeneID 821) | 1 | 0.18 (active) | 0.2 | 0.69 | 0.11 | 0.34
CANX (GeneID 821) | 2 | 0.96 | 4.37 | 3.66 | -0.11 | -0.08
CANX (GeneID 821) | 3 | 0.76 | 2.36 | 2.19 | -0.17 | -0.1
CANX (GeneID 821) | 4 | 0.69 | 2.96 | 2.93 | 0.15 | 0.08
GIPC1 (GeneID 10755) | 1 | 0.62 | 1.15 | 1.24 | 1.18 | 0.87
GIPC1 (GeneID 10755) | 2 | 0.82 | 0.76 | 0.64 | -0.04 | 0.28
GIPC1 (GeneID 10755) | 3 | 0.86 | 4.28 | 3.34 | -0.02 | -0.03
GIPC1 (GeneID 10755) | 4 | 1 | 2.53 | 1.71 | 0.27 | 0.32
GFRA4 (GeneID 64096) | 1 | 0.6 | 1.62 | 1.6 | 0.41 | 0.21
GFRA4 (GeneID 64096) | 2 | 0.4 (active) | 1.11 | 1.66 | 0.6 | 0.58
GFRA4 (GeneID 64096) | 3 | 0.46 (active) | 1.08 | 1.38 | 0.44 | 0.4
GFRA4 (GeneID 64096) | 4 | 0.62 | 1.07 | 1.02 | 0.6 | 0.82
GPR101 (GeneID 83550) | 1 | 0.3 (active) | 0.75 | 1.62 | 0.16 | 0.17
GPR101 (GeneID 83550) | 2 | 0.69 | 0.99 | 0.9 | 0.23 | 0.27
GPR101 (GeneID 83550) | 3 | 0.64 | 0.94 | 0.92 | 1.18 | 1.23
GPR101 (GeneID 83550) | 4 | 1.12 | 2.51 | 1.43 | 0.09 | 0.26
SPARC (GeneID 6678) | 1 | 0.64 | 1.52 | 1.65 | 0.47 | 0.27
SPARC (GeneID 6678) | 2 | 0.52 (active) | 1.28 | 1.66 | 0.62 | 0.22
SPARC (GeneID 6678) | 3 | 0.5 (active) | 1.52 | 2.08 | 0.45 | 0.25
SPARC (GeneID 6678) | 4 | 0.62 | 0.8 | 0.86 | 0.79 | 1.1
RPS6KB2 (GeneID 6199) | 1 | 0.51 (active) | 1.25 | 1.56 | 0.37 | 0.24
RPS6KB2 (GeneID 6199) | 2 | 0.64 | 1.31 | 1.29 | 0.79 | 0.62
RPS6KB2 (GeneID 6199) | 3 | 0.42 (active) | 1.48 | 2.22 | 0.38 | 0.19
RPS6KB2 (GeneID 6199) | 4 | 0.75 | 1.08 | 0.92 | 0.93 | 0.98
VCX3B (GeneID 425054) | 1 | 0.52 (active) | 1.26 | 1.76 | 0.18 | 0.22
VCX3B (GeneID 425054) | 2 | 0.64 | 1.42 | 1.6 | 0.37 | 0.22
VCX3B (GeneID 425054) | 3 | 0.7 | 1.02 | 1.06 | 0.87 | 0.85
VCX3B (GeneID 425054) | 4 | 0.4 (active) | 0.86 | 1.54 | 0.04 | 0
SLC38A6 (GeneID 145389) | 1 | 0.46 (active) | 1.68 | 2.21 | 0.56 | 0.16
SLC38A6 (GeneID 145389) | 2 | 0.33 (active) | 0.44 | 0.8 | 0.72 | 0.94
SLC38A6 (GeneID 145389) | 3 | 0.7 | 0.84 | 0.72 | 0.38 | 0.55
SLC38A6 (GeneID 145389) | 4 | 0.61 | 1.07 | 1.04 | 0.54 | 0.86
OR5C1 (GeneID 392391) | 1 | 0.52 (active) | 1.15 | 1.46 | 0.04 | 0.27
OR5C1 (GeneID 392391) | 2 | 0.71 | 2.65 | 2.48 | 0.07 | 0.1
OR5C1 (GeneID 392391) | 3 | 0.58 | 0.67 | 0.75 | 0.44 | 0.86
OR5C1 (GeneID 392391) | 4 | 0.54 (active) | 1.65 | 2.04 | 0.06 | 0.02
